Data on one compound can be found in PMC5814585, “Modulators of actin-myosin dissociation: basis for muscle type functional differences during fatigue” (American Journal of Physiology - Cell Physiology, 2017).

The test system of this series is actin.PsoS1. The note with it: psoas.

As to `O=P(O)(O)O` [Pi, inorganic phosphate], the “KPi tighter at pH 6.2 than at pH 7.0” value came out at 30%.
